The target of experiment [1] is fluorescently tagged ectodomain of CD2 (UniProt P06729). As to the kind of experiment: flow cytometry, fluorescently tagged CD2 ectodomain on transfected cells.
The target is the same in experiment [2]. As to the kind of experiment: flow cytometry, fluorescently tagged CD2 ectodomain on cells transfected with the device mRNA. A general note: Flow cytometry measures light scatter and fluorescence of single cells or particles in a stream.

Amino acid sequences for entries named in this document (tags omitted). Residues count along the entry.
UniProt P06729, residues 25-209: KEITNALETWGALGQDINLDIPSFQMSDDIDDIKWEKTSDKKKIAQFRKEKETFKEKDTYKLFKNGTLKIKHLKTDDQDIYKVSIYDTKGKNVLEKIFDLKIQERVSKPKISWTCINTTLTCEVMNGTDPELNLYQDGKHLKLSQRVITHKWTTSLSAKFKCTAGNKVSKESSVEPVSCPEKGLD

No constants are given. Whether binding was seen depends on the method and setting. Some results given as binding are weak or reduced against the parent protein; the word gives no strength.

B1: hIEE-Fv(+)22 (protein)
chain: DVVMTQSPPSLLVTLGQPASISCRSSQSLLHSSGNTYLNWLLQRPGQSPQPLIYLVSKLESGVPDRFSGSGSGTDFTLKISGVEAEDVGVYYCMQFTHYPYTFGQGTKLEIKGGGGSGGGGSGGGGSQVQLVQSGAEVKKPGASVKVSCKASGYTFTEYYMYWVRQAPGQGLELMGRIDPEDGSIDYVEKFKKKVTLTADTSSSTAYMELSSLTSDDTAVYYCARGKFNYRFAYWGQGTLVTVSSGGGSKHTPKLEIKVTPSDAIVREGDSVTMTCEVSSSNPEYTTVSWLKDGTSLKKQNTFTLNLREVTKDQSGKYCCQVSNDVGPGRSEEVFLQVQYAPEPSTVQILHSPAVEGSQVEFLCMSLANPLPTNYTWYHNGKEMQGRTEEKVHIPKILPWHAGTYSCVAENILGTGQRGPGAELDVQYPPKKVTTVIQNPMPIREGDTVTLSCNYNSSNPSVTRYEWKPHGAWEEPSLGVLKIQNVGWDNTTIACAACNSWCSWASPVALNVQYAPRDVRVRKIKPLSEIHSGNSVSLQCDFSSSHPKEVQFFWEKNGRLLGKESQLNFDSISPEDAGSYSCWVNNSIGQTASKAWTLEVLYAPRRLRVSMSPGDQVMEGKSATLTCESDANPPVSHYTWFDWNNQSLPYHSQKLRLEPVKVQHSGAYWCQGTNSVGKGRSPLSTLTVYYSPETIGRRVAVGLGSCLAILILAICGLKLQRRWKRTQSQQG
For the molecule B1, the binding entry in experiment [1] and in experiment [2] was “binds” throughout.

B2: hIEE-Fv(+)ABC (protein)
chain: DVVMTQSPPSLLVTLGQPASISCRSSQSLLHSSGNTYLNWLLQRPGQSPQPLIYLVSKLESGVPDRFSGSGSGTDFTLKISGVEAEDVGVYYCMQFTHYPYTFGQGTKLEIKGGGGSGGGGSGGGGSQVQLVQSGAEVKKPGASVKVSCKASGYTFTEYYMYWVRQAPGQGLELMGRIDPEDGSIDYVEKFKKKVTLTADTSSSTAYMELSSLTSDDTAVYYCARGKFNYRFAYWGQGTLVTVSSGGGSQSPTPSPTGLTTAKMPSVPLSSDPLPTHTTAFSPASTFERENDFSETTTSLSPDNTSTQVSPDSLDNASAFNTTGVSSVQTPHLPTHADSQTPSAGTDTQTFSGSAANAKLNPTPGSNAISDVPGERSTASTFPTDPVSPLTTTLSLAHHSSAALPARTSNTTITANTSDAYLNASETTTLSPSGSAVISTTTIATTPSKPTCDEKYANITVDYLYNKETKLFTAKLNVNENVECGNNTCTNNEVHNLTECKNASVSISHNSCTAPDKTLILDVPPGVEKFQLHDCTQVEKADTTICLKWKNIETFTCDTQNITYRFQCGNMIFDNKEIKLENLEPEHEYKCDSEILYNNHKFTNASKIIKTDFGSPGEPQIIFCRSEAAHQGVITWNPPQRSFHNFTLCYIKETEKDCLNLDKNLIKYDLQNLKPYTKYVLSLHAYIIAKVQRNGSAAMCHFTTKSAPPSQVWNMTVSMTSDNSMHVKCRPPRDRNGPHERYHLEVEAGNTLVRNESHKNCDFRVKDLQYSTDYTFKAYFHNGDYPGEPFILHHSTSYNSKALIAFLAFLIIVTSIALLVVLYKIYDLHKKRSCN
As for B2, the binding entry in experiment [1] and in experiment [2] was “binds” each time.

B3: hIEE-Fv(+)RO (protein)
chain: DVVMTQSPPSLLVTLGQPASISCRSSQSLLHSSGNTYLNWLLQRPGQSPQPLIYLVSKLESGVPDRFSGSGSGTDFTLKISGVEAEDVGVYYCMQFTHYPYTFGQGTKLEIKGGGGSGGGGSGGGGSQVQLVQSGAEVKKPGASVKVSCKASGYTFTEYYMYWVRQAPGQGLELMGRIDPEDGSIDYVEKFKKKVTLTADTSSSTAYMELSSLTSDDTAVYYCARGKFNYRFAYWGQGTLVTVSSGGGSQSPTPSPTDAYLNASETTTLSPSGSAVISTTTIATTPSKPTCDEKYANITVDYLYNKETKLFTAKLNVNENVECGNNTCTNNEVHNLTECKNASVSISHNSCTAPDKTLILDVPPGVEKFQLHDCTQVEKADTTICLKWKNIETFTCDTQNITYRFQCGNMIFDNKEIKLENLEPEHEYKCDSEILYNNHKFTNASKIIKTDFGSPGEPQIIFCRSEAAHQGVITWNPPQRSFHNFTLCYIKETEKDCLNLDKNLIKYDLQNLKPYTKYVLSLHAYIIAKVQRNGSAAMCHFTTKSAPPSQVWNMTVSMTSDNSMHVKCRPPRDRNGPHERYHLEVEAGNTLVRNESHKNCDFRVKDLQYSTDYTFKAYFHNGDYPGEPFILHHSTSYNSKALIAFLAFLIIVTSIALLVVLYKIYDLHKKRSCN
As for B3, the binding entry in experiment [1] and in experiment [2] was “binds” each time.

The values are drawn from patent US20230265190A1.
